Test results: article PMC4429541
No constants are given. Whether binding was seen depends on the method and setting. Binding seen in cells or lysates may run through a third protein. A result given as binding can be weak or reduced; the word gives no strength.

Protein sequences, listed by entry. Tags and fused reporters are not part of them.
UniProt Q06945: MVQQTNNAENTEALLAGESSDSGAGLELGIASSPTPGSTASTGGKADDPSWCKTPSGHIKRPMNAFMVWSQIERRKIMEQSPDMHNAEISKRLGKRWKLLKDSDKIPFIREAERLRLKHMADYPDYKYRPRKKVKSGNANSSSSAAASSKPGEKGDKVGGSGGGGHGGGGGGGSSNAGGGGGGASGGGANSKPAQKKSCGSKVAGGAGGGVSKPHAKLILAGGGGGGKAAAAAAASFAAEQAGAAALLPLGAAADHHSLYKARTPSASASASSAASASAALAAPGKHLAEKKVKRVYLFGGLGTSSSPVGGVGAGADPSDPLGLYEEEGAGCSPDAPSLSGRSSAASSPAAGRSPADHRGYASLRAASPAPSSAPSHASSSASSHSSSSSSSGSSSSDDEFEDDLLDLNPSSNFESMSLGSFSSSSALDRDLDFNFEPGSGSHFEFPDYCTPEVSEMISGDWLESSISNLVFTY

Biological target: sex-determining region Y box 4 (Sox4) (UniProt Q06945)
Assay: co-IP; HEK293T cells co-transfected with the indicated plasmids for 48 h, lysed in RIPA lysis buffer; supernatants incubated with the indicated antibodies overnight at 4 °C, protein G Sepharose beads 2 h at 4 °C; Western blotting

## HBV surface protein (HBsAg) (from UniProt P03138)
  binding: binds
